Some of these results come from one statement about several compounds together.
System: S. epidermidis strain 9142
Assay: Biofilm determination, crystal violet, S. epidermidis
Type: cell-based, Staphylococcus epidermidis
Settings: static microtiter plate assay
Description: Staphylococcal strains were cultured overnight in TSB at 37° C. with shaking, diluted in fresh medium to an OD600 of 0.01 and 200 W was dispensed into sterile flat bottom polystyrene 96 well microtiter plates (Costar 3596, Corning Inc.). […] Each compound and dilution was tested in triplicate. The plates were incubated overnight at 37° C. in a humidified incubator, without shaking and both growth and biofilm accumulation were determined at 16 h.
Following recording of turbidities, the culture medium was aspirated and the wells were washed three times with distilled water, blotted on paper towels, and fixed with 75% ethanol for 10 minutes.
To visualize biofilm material, 0.5% crystal violet was added to each well and after 5 minutes was removed and the wells washed three times with distilled water. Plates were read using a microplate reader at a wavelength of 570 nm. The dye was then extracted by adding 200 W of 95% ethanol, and the absorbance was read again at 570 nm. All assays were performed in triplicate and the mean and standard deviation determined. Generally, the ethanol-solubilized crystal violet was more reliable and these determinations are reported throughout.

Row | Compound | Sub-MIC concentrations that inhibited production of biofilm [µg/mL]
1 | CC(=O)Oc1ccccc1C(=O)Nc1ncc([N+](=O)[O-])s1 [Nitazoxanide, 2-(acetyloxy)-N-(5-nitro-2-thiazolyl)benzamide, reference compound] | 2 to 8
2 | O=C(Nc1ncc([N+](=O)[O-])s1)c1ccccc1O [TIZ] | 2 to 8
